Laboratory results from the supplement of paper PMC3334620.
Whole data set: some 33,000 sequences, median “E-score (-0.5 to 0.5)” near -0.0059, cut for the highest 2% near 0.26. Some of the results follow.

Each sequence was assayed against T1, Cin5 (UniProt P40917) (assay: PBM E-score (8-mer binding enrichment) (E-score (-0.5 to 0.5)); higher = stronger / more preferred TF binding). Settings: protein concentration: 100 nM; construct: GST-full length.
T1 sequence: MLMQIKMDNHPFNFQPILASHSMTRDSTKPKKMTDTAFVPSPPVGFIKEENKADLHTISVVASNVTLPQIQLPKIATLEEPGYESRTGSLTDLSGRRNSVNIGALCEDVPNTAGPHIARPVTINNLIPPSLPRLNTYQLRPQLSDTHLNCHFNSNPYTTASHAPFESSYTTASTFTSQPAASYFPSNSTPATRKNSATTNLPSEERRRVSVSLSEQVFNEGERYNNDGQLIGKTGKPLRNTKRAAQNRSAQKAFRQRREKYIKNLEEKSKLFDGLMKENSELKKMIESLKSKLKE
Protocol: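 Universal 'all 10-mer' protein binding microarrays (Agilent AMADID 015681) probed with GST-tagged S. cerevisiae TFs (full-length or DBD) made by in vitro transcription/translation (PURExpress), about 100-200 nM. Bound TF was detected with fluorescent anti-GST. Each ungapped 8-mer (which stands for itself and its reverse complement) is scored by the PBM enrichment score (E-score), a modified Wilcoxon-Mann-Whitney statistic from -0.5 to +0.5, computed with the Universal PBM Analysis Suite. Scale: above 0.35 generally sequence-specific binding.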

In order of rising “PBM E-score” value:
1. AGGGAGCA  -0.34
2. AGCCCGTC  -0.305
3. CGAGAGTC  -0.265
4. ACCGGAGG  -0.265
5. TGTGCACA  -0.259
6. GCCACCCC  -0.253
7. CCCGTTGC  -0.244
8. GCCTAGAC  -0.241
9. AGCGGGTC  -0.239
10. AAGCGGTG  -0.236
11. GCCCGTGA  -0.223
12. ATAGCACG  -0.212
13. CGGGAGAG  -0.206
14. CCTAGCCA  -0.199
15. CTTGACGA  -0.194
16. GGTGCACA  -0.189
17. CTGGGCAC  -0.178
18. AGAGCCAC  -0.176
19. CGTTAGAC  -0.168
20. GCGAGCCC  -0.163
21. AGGCCGCG  -0.161
22. CTGACCCA  -0.153
23. ATGTAGGG  -0.151
24. AAACAGTC  -0.151
25. CCTAGATA  -0.14
26. GCCTACGC  -0.137
27. GCCTAGCC  -0.133
28. ACTCCTCT  -0.133
29. ACAGACGT  -0.127
30. AAGAGGCG  -0.126
31. GCTGCGAC  -0.124
32. CAACAGGA  -0.121
33. GTGCCGAA  -0.12
34. AGGATCGG  -0.108
35. AGGAACCC  -0.106
36. GGGCTATA  -0.104
37. CGCAGCAG  -0.103
38. CTTAAGGA  -0.102
39. AGTCGAAG  -0.101
40. CTTGCTAC  -0.096
41. CCCTGGAC  -0.0926
42. AGACCCGC  -0.0923
43. ACGTGGCG  -0.0905
44. CCAGTCAG  -0.087
45. AGTGCGCG  -0.0857
46. CCGCACGA  -0.0814
47. CGCGGAGC  -0.0803
48. CCATGGAG  -0.0771
49. CTACGGGA  -0.0722
50. CAACGTAG  -0.0703
51. ACACCCGT  -0.0661
52. CTGTAGGA  -0.0637
53. CTAATGAG  -0.0617
54. ACGTGGTC  -0.0603
55. AGGTGCGG  -0.0579
56. ATGCTCTC  -0.0579
57. AGGAGGGG  -0.0529
58. CTTGGCGC  -0.0524
59. ACCGGATA  -0.052
60. TCTGCTAA  -0.052
61. ATTAGAGA  -0.0518
62. AATAAAGC  -0.0487
63. ACAGAGGA  -0.0466
64. CCGACGTC  -0.0456
65. ACATTGCC  -0.0456
66. ATTCGCAC  -0.0442
67. GCGGCACC  -0.044
68. AGGCAGGA  -0.0428
69. ACGTGGTA  -0.0413
70. AAGGTGGT  -0.0395
71. GATAGAGA  -0.0355
72. ACCTCGCT  -0.0349
73. CTCGCAAC  -0.0335
74. AAGAGAAC  -0.0311
75. CAAATGAG  -0.025
76. CCCATGAC  -0.0231
77. CGAACAAG  -0.0215
78. CGTGACCA  -0.0204
79. GTGCGGGA  -0.0202
80. CCGTTAGA  -0.0155
81. AACTCGCA  -0.0127
82. GCAGACGA  -0.0111
83. CCCACGCA  -0.0107
84. CAATAGTC  -0.0103
85. AGTGTGTC  -0.0087
86. CAAAGAAG  -0.00102
87. GATACTCC  0.00607
88. AGTTGTAC  0.0071
89. CGGATGCC  0.00719
90. CACGACAG  0.00784
91. ATCTGTCC  0.00845
92. AGCGAATC  0.009
93. CATAGTGC  0.0103
94. AGCATTGA  0.0105
95. ACCGCACT  0.0106
96. CATCGCGC  0.0145
97. AAGCACTT  0.0388
98. CGCAAGGA  0.0484
99. CAAATAAA  0.0487
100. GTCCGAAA  0.0489
101. TAGAGATA  0.0496
102. ACCGGAAT  0.0498
103. CGAGTCGA  0.0554
104. CAAACTCG  0.0562
105. AAGAACAG  0.0572
106. TGAAGTCA  0.0574
107. CTCACGAA  0.0615
108. TTCGTAAA  0.0623
109. GACAGCAC  0.0627
110. GCACATTA  0.0664
111. ACACTTAA  0.0701
112. CATGAACA  0.0732
113. ACGCGCCT  0.0749
114. AAGGAAAT  0.0752
115. GATCAGCA  0.0782
116. AACCCCGT  0.0797
117. AAAACGTT  0.0816
118. AATGGTTG  0.0822
119. CGATAGAA  0.0849
120. AATAGTCG  0.0892
121. TCGTTTCA  0.0907
122. CTATTCTC  0.0935
123. AGCTCATA  0.0937
124. AAAACGAA  0.101
125. ATGTTACC  0.103
126. CAGTTCGC  0.103
127. AAATTGAA  0.105
128. CCTATTTA  0.106
129. ATACGACG  0.106
130. AAGGTATT  0.109
131. AGACCCCA  0.11
132. ACACAACT  0.113
133. AATTCTCC  0.115
134. GACAGAAA  0.116
135. GTGATCAA  0.118
136. AATAACAG  0.119
137. ATATGGGA  0.131
138. CGCTCTTA  0.138
139. AAGTTAGC  0.138
140. GTTCGAAC  0.139
141. GGTTTGAA  0.139
142. GATACCAA  0.14
143. CAAAAAAG  0.141
144. CACATATA  0.145
145. CATTGATA  0.146
146. ACGACAAT  0.147
147. AATATTGG  0.154
148. CATACTAA  0.154
149. ATACCCGC  0.155
150. GCAAGTTA  0.155
151. TAAATCAA  0.155
152. CGGTAACA  0.161
153. ATCGAAAG  0.161
154. AAAGTATG  0.163
155. CATATTGG  0.165
156. GAAATCAA  0.167
157. GCATGATA  0.168
158. AAACATTT  0.175
159. AGTTAATG  0.175
160. GAACGGAA  0.176
161. GCCTATTA  0.177
162. ATATTCCG  0.179
163. ATTAATCC  0.18
164. ACTGATAA  0.182
165. AGTATGAG  0.184
166. ACTGGATA  0.189
167. AAGACAGA  0.195
168. AATAATAG  0.198
169. ACCACTAA  0.221
170. TATATAGA  0.238
171. CAGTATAA  0.284
172. CGGCTTAC  0.358
